Experimental data: PubChem BioAssay AID1259282 (Sanger Institute, 2017)

- Purpose: 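Kinases whose loss reduces viability on their own or with anchor drugs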 (primary screen)
- System: DIFI human colorectal cancer cell line
- Reagent: siRNA pool against human genes
- Conditions: anchor drug at a mild dose (BYL719 1 µM, cetuximab 5 µg/ml, trametinib 10 nM) or DMSO vehicle; exposure time not given
- Read-out: 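Robust z-score and replicate-mean viability versus non-targeting pool without drug, plus a synergy score for each low-dose anchor drug (BYL719, cetuximab, trametinib)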
- Scale: robust z-score, knock-down alone: higher = more viable cells than typical knock-down; viability, knock-down alone: higher = more viable cells; synergy score with trametinib and synergy score with cetuximab and synergy score with BYL719: higher = stronger combined killing with drug
- Active means: 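a knock-down is called essential if its DMSO robust z-score is under -3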
- Calls: active = essential (knock-down alone, z below -3); inactive = not essential
This is one part, drawn at random, of 794 deposited reagents. 11 of all reagents (1.4%) were called active. 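Calls flag knock-downs that lower viability without drug; drug synergy appears only in the synergy scores; exposure time not stated.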 Viability is capped at 1. The record does not give: the amount of reagent, the time to read-out.

Target gene	robust z-score, knock-down alone	viability, knock-down alone (fraction of control)	synergy score with trametinib	synergy score with cetuximab	synergy score with BYL719	Outcome
MAK (male germ cell associated kinase)	0.362	0.949	0.102	-0.0049	-0.265	inactive
AK2 (adenylate kinase 2)	0.715	1	0.12	0.139	-0.301	inactive
RPS6KC1 (ribosomal protein S6 kinase C1)	-0.234	0.862	0.0526	-0.00429	0.0439	inactive
CDK1 (cyclin dependent kinase 1)	0.715	1	-0.162	-0.114	-0.289	inactive
CUL1 (cullin 1)	0.715	1	-0.148	-0.241	-0.322	inactive
NTRK1 (neurotrophic receptor tyrosine kinase 1)	-0.463	0.829	0.156	0.0652	0.0725	inactive
TTBK2 (tau tubulin kinase 2)	-0.202	0.867	0.133	-0.0197	-0.252	inactive
PRPS1L1 (phosphoribosyl pyrophosphate synthetase 1 like 1)	0.209	0.926	0.142	0.0361	-0.0858	inactive
CAD	0.715	1	-0.0764	-0.0835	-0.225	inactive

2 entries from above, reformatted:
RPS6KC1 (ribosomal protein S6 kinase C1)
- robust z-score, knock-down alone: -0.234
- viability, knock-down alone (fraction of control): 0.862
- synergy score with trametinib: 0.0526
- synergy score with cetuximab: -0.00429
- synergy score with BYL719: 0.0439
- Outcome: inactive

CDK1 (cyclin dependent kinase 1)
- robust z-score, knock-down alone: 0.715
- viability, knock-down alone (fraction of control): 1
- synergy score with trametinib: -0.162
- synergy score with cetuximab: -0.114
- synergy score with BYL719: -0.289
- Outcome: inactive

Next results follow.
Target gene	robust z-score, knock-down alone	viability, knock-down alone (fraction of control)	synergy score with trametinib	synergy score with cetuximab	synergy score with BYL719	Outcome
BRDT (bromodomain testis associated)	0.715	1	0.0605	-0.21	-0.276	inactive
NPR2 (natriuretic peptide receptor 2)	0.715	1	0.0359	0.0503	-0.133	inactive
ATM (ATM serine/threonine kinase)	0.148	0.918	-0.0221	-0.0444	-0.0472	inactive
FGFR2 (fibroblast growth factor receptor 2)	0.715	1	0.221	0.106	0.0409	inactive
PCBP1 (poly(rC) binding protein 1)	0.572	0.979	-0.0763	-0.0444	-0.194	inactive
NME6 (NME/NM23 nucleoside diphosphate kinase 6)	-2	0.605	-0.106	-0.0591	-0.00925	inactive
DGKK (diacylglycerol kinase kappa)	0.548	0.976	0.0956	-0.0211	-0.116	inactive
NAGK (N-acetylglucosamine kinase)	0.715	1	0.044	-0.0892	-0.117	inactive
EPHB1 (EPH receptor B1)	-0.37	0.842	0.193	0.0611	-0.0628	inactive
DCLK1 (doublecortin like kinase 1)	0.715	1	0.0143	0.0662	-0.0695	inactive
AMER1 (APC membrane recruitment protein 1)	-1.32	0.705	0.139	0.059	-0.0495	inactive
